Consider 44 molecules from PubChem BioAssay AID662 (National Center for Advancing Translational Sciences (NCATS), 2007).

The other results are listed elsewhere or left out. Further columns of the screen follow, without active or inactive calls. Compounds called inactive in the main read-out are mostly missing here. Words in brackets tell the shape of the fitted curve; partial curves, single points and poor fits give uncertain potencies.

A short description of this test: Cell signaling CRE-BLA (Fsk stim). To be noted: CHO CRE-bla reporter (cAMP response element driving beta-lactamase), forskolin EC10, beta-lactamase ratio; measured here: 460 nm blue channel. An outline of the steps:
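Using CellSensor CRE-bla CHO cells in Opti-MEM with 0.5% dialyzed FBS, compounds were titrated with EC10 NKH 477 for 3 h at 37 °C. CCF4 ratio (460/530 nm) gave %Activity; AC50 derived.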
As for `CCOC(=O)c1csc(NC(=O)c2cc(OC)c(OC)c(OC)c2)n1`, the AC50 is 15.8 µM [rising, partial curve].
To `O=C(CCn1c(=O)c2ccccc2n(CC(=O)NCCC2=CCCCC2)c1=O)NCc1ccco1` belongs 25.1 µM [rising, single point]; to `CCOCCCNC(=O)Cc1ccc(OC)c(OC)c1`, 25.1 µM [rising, single point].
To `CCOC(=O)c1c(NC(=O)CSc2nnnn2C)sc(C)c1-c1ccc(C)cc1` belongs 3.98 µM [rising, full curve]; to `Cc1nnsc1NC(=O)OCC(C)C`, 12.6 µM [falling, partial curve].
Turning to `CCc1ccccc1N1CSC2=C(C#N)C(c3cc(OC)c(OC)cc3OC)CC(=O)N2C1` (centres undefined), the AC50 was 10 µM [rising, single point].
For the molecule `N#Cc1cc2c(nc1SCc1cccnc1)CCC2`, the AC50 was 12.6 µM [rising, partial curve].
Regarding `COc1cccc2oc(-c3ccc(O)cc3)cc(=O)c12`, the AC50 was 10 µM [rising, full curve, poor fit].
The figure for `Cc1cc(-c2ccccc2)c2nncn2n1` is 0.126 µM [rising, full curve]; for `CCc1cccc2c(C#N)cn(CCOc3ccccc3OC)c12` it is 0.398 µM [falling, single point].
With `CC(C)(C)c1cc(C(F)(F)F)nc(SCCCNC(=O)c2ccco2)n1`, the AC50 is 10 µM [rising, partial curve].
Consider `O=c1c(CCc2ccccc2)nc2cncnc2n1-c1ccccc1`, for which the AC50 is 12.6 µM [rising, partial curve].
To `CCCCOc1ccc(S(=O)(=O)n2c(C)nc3ccccc32)cc1` belongs 0.794 µM [rising, partial curve]; to `CN(C)c1ncc2nc(-c3cc(F)cc(F)c3)c(=O)n(C)c2n1`, 6.31 µM [rising, partial curve].
`Cc1ccc2nc3c(cc(C(=O)NCC4CCCO4)c(=N)n3CCCOC(C)C)c(=O)n2c1` (centres undefined): the AC50 was 10 µM [rising, partial curve].
The figure for `COc1ccc(-n2c(=O)c(CCc3ccccc3)nc3cnc(N4CCN(C)CC4)nc32)cc1` is 12.6 µM [rising, partial curve]; for `O=C1CC(c2ccc(F)cc2)Sc2ccccc2N1` (centres undefined) it is 12.6 µM [falling, single point].
`CN(C)CCCN1c2ccc3ccccc3c2Sc2cccc(Cl)c21`: the half-maximal activity concentration (AC50) is 5.01 µM [rising, single point].
The figure for `COc1ccc(S(=O)(=O)C(C#N)c2nc3ccccc3nc2N2CCCC(C)C2)cc1` (centres undefined) is 12.6 µM [rising, partial curve].
The figure for `COc1cccc(-n2c(SC3CCOC3=O)nc3ccccc3c2=O)c1` (centres undefined) is 6.31 µM [rising, partial curve].
To `CCCCC(=O)N1CC2(C)CN(C(=O)CCCC)CC(C)(C1)C2=O` belongs 0.316 µM [falling, partial curve].
On to `COc1ccc(-c2nc(C#N)c(N3CCCCCC3)o2)cc1OC`, for which the AC50 was 1.58 µM [rising, full curve].
To `COc1cccc(Cn2c(=O)c(-c3ccccc3)nc3cnc(N4CCN(C)CC4)nc32)c1` belongs 2.51 µM [rising, full curve].
The figure for `CCOc1ccc(C(=O)Nc2cc(C)c3c(=O)oc4ccccc4c3n2)cc1` is 10 µM [rising, partial curve].
The figure for `N#C/C(=C\Nc1ccc2c(c1)OCCO2)c1nc2ccccc2[nH]1` is 25.1 µM [falling, single point]; for `CN(C(=O)CSc1nc(-c2ccc(F)cc2)cs1)C1CCS(=O)(=O)C1` (centres undefined) it is 12.6 µM [falling, single point].
Turning to `O=C(Cn1cnc2c(cnn2-c2ccccc2)c1=O)NCc1ccccc1`, the AC50 is 20 µM [falling, single point].
To `COc1ccc(-n2nnnc2-c2cccc(OC)c2)cc1` belongs 15.8 µM [rising, single point]; to `CCOC(=O)CSc1nnc(CNC(=O)c2cccs2)n1-c1ccccc1`, 25.1 µM [rising, single point]; to `O=c1cnc2cnc(Oc3cccc(Cl)c3)nc2n1C1CC1`, 15.8 µM [rising, single point].
The figure for `O=C(Nc1ccc2nc(-c3cccs3)[nH]c2c1)c1ccco1` is 5.01 µM [rising, partial curve]; for `CCNc1ncc2nc(-c3cn(C)c4ccccc34)c(=O)n(C[C@H]3CCCO3)c2n1` it is 15.8 µM [rising, partial curve]; for `Cn1c(=O)cc(OCCCC(=O)Nc2ccc3c(c2)OCCO3)c2ccccc21` it is 12.6 µM [rising, partial curve].
To `N=C1C(c2nc3ccccc3c(=O)[nH]2)=C(O)CN1CCc1ccccc1` belongs 3.98 µM [rising, partial curve]; to `CCc1ccccc1N1CCN(S(=O)(=O)c2ccc(F)c(C)c2)CC1`, 0.00398 µM [falling, full curve, poor fit].
For the molecule `CCS(=O)(=O)c1ccc(O)c(NC(=O)c2cc(OC)c(OC)c(OC)c2)c1`, the AC50 is 10 µM [rising, partial curve].
To `COC(=O)c1c(NC(=O)Cc2cccs2)sc2c1CCCC2` belongs 12.6 µM [rising, partial curve].
Regarding `COc1cccc(-n2ccnc2SCC(=O)Nc2cc(OC)ccc2OC)c1`, the AC50 was 10 µM [rising, partial curve].
The figure for `CCCc1cc(=O)[nH]c(SCC(=O)Nc2cc3c(cc2C(C)=O)OCO3)n1` is 15.8 µM [rising, partial curve].
The figure for `COc1cccc(-n2nnc3c(=O)n(CC(=O)OCc4ccccc4)cnc32)c1` is 5.01 µM [falling, single point]; for `N#Cc1ccccc1-c1ccc2ncnc(N3CCNCC3)c2c1` it is 12.6 µM [rising, partial curve].
Regarding `CCn1c(COc2ccccc2C)nnc1SCC(=O)CC(=O)Nc1ccccc1`, the half-maximal activity concentration (AC50) is 25.1 µM [falling, single point].
To `Cc1ccnc(NS(=O)(=O)c2ccc(NC(=O)C3CCCNC3=O)cc2)n1` (centres undefined) belongs 10 µM [rising, partial curve].
The figure for `c1cncc(-c2nnc3n2N=C(c2cccs2)CS3)c1` is 12.6 µM [rising, single point].

As usually defined, the AC50 is the concentration at which the activity in the assay is half-maximal.
